Data as given in PubChem BioAssay AID1259424 (University of Nebraska Medical Center, 2018)
This is a random part of about 14,000 deposited reagents. 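Higher correlation or smaller distance means closer resemblance to KSR1 loss; control wells, including KSR1 knockdowns, recur on many plates.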 Reagents against one gene are numbered here. Not all columns of the deposit are shown. Not given: the time to read-out.

- Test: 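Find knockdowns that reproduce the expression shifts seen after KSR1 loss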 (primary screen)
- System: human HCT116 colon cancer cells
- Reagent: siRNA pool against human genes, 50 nM
- Detection: 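Six signature mRNAs by branched-DNA multiplex assay, scaled to two housekeeping genes and non-targeting median, log2; matched to mean KSR1 knockdown profile by Pearson correlation and euclidean distance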
- Reading the numbers: mean correlation with KSR1 profile: higher = expression change more like KSR1 knockdown

mean correlation with KSR1 profile, by gene and reagent
KCNMA1 (potassium calcium-activated channel subfamily M alpha 1): #1 0.151
RAP1GAP2 (RAP1 GTPase activating protein 2): #1 0.58
IL17RC (interleukin 17 receptor C): #1 0.619
HSPH1 (heat shock protein family H (Hsp110) member 1): #1 0.848
SLC2A3: #1 -0.119
PPT1 (palmitoyl-protein thioesterase 1): #1 0.984
PTGER1 (prostaglandin E receptor 1): #1 0.954
ITGAL (integrin subunit alpha L): #1 -0.771
LY6G5B (lymphocyte antigen 6 family member G5B): #1 0.683
GOLGA2P10 (GOLGA2 pseudogene 10): #1 0.0639
ACLY (ATP citrate lyase): #1 0.0933
SNX27 (sorting nexin 27): #1 0.308
GPATCH2L (G-patch domain containing 2 like): #1 -0.118
ALOXE3 (arachidonate epidermal lipoxygenase 3): #1 -0.746
RDX (radixin): #1 0.194
DPP6 (dipeptidyl peptidase like 6): #1 -0.268
HEPH (hephaestin): #1 0.105
OR10J1 (olfactory receptor family 10 subfamily J member 1): #1 0.63
NRGN (neurogranin): #1 -0.351
MCF2L (MCF.2 cell line derived transforming sequence like): #1 -0.683
ADGRF1 (adhesion G protein-coupled receptor F1): #1 -0.268; #2 0.408
BAGE3 (BAGE family member 3): #1 0.583
MAP4K3 (mitogen-activated protein kinase kinase kinase kinase 3): #1 0.613
SLC27A3: #1 -0.686
ZFPM2 (zinc finger protein, FOG family member 2): #1 0.07
PCCB (propionyl-CoA carboxylase subunit beta): #1 -0.123
VCPIP1 (valosin containing protein interacting protein 1): #1 -0.0648
MYCNOS (MYCN opposite strand): #1 0.209
CLUHP3 (CLUH pseudogene 3): #1 0.468
IGFALS: #1 0.488
SNTG2 (syntrophin gamma 2): #1 -0.0922
WDR37 (WD repeat domain 37): #1 -0.391

In a second layout: 4 of the entries above
{"gene":"HSPH1 (heat shock protein family H (Hsp110) member 1)","reagent no.":1,"mean correlation with KSR1 profile":0.848}
{"gene":"SLC2A3","reagent no.":1,"mean correlation with KSR1 profile":-0.119}
{"gene":"PPT1 (palmitoyl-protein thioesterase 1)","reagent no.":1,"mean correlation with KSR1 profile":0.984}
{"gene":"PTGER1 (prostaglandin E receptor 1)","reagent no.":1,"mean correlation with KSR1 profile":0.954}

Next entries follow:
mean correlation with KSR1 profile, by gene and reagent
DROSHA (drosha ribonuclease III): #1 0.128
GNE: #1 -0.156
HSPB8 (heat shock protein family B (small) member 8): #1 0.782
SOSTDC1 (sclerostin domain containing 1): #1 -0.46
ULK3 (unc-51 like kinase 3): #1 0.623
THEMIS2 (thymocyte selection associated family member 2): #1 -0.197
TFPI (tissue factor pathway inhibitor): #1 -0.241
PKD1L1-AS1 (PKD1L1 antisense RNA 1): #1 0.13
RAB35 (RAB35, member RAS oncogene family): #1 -0.384
PKDREJ (polycystin family receptor for egg jelly): #1 0.0507
USP11 (ubiquitin specific peptidase 11): #1 -0.507
FAP (fibroblast activation protein alpha): #1 -0.161
RPL28 (ribosomal protein L28): #1 0.178
CYP8B1 (cytochrome P450 family 8 subfamily B member 1): #1 -0.16
KRT37 (keratin 37): #1 -0.4
SELENOK (selenoprotein K): #1 -0.106
RPGR (retinitis pigmentosa GTPase regulator): #1 0.707
